In the test the target is Voltage-gated inwardly rectifying potassium channel KCNH2 (Homo sapiens, UniProt Q12809).

Protein sequences, listed by entry. Tags and fused reporters are not part of them. Lines headed by an entry give the natural chain unless they say otherwise; changes in a name come on top.
UniProt Q12809: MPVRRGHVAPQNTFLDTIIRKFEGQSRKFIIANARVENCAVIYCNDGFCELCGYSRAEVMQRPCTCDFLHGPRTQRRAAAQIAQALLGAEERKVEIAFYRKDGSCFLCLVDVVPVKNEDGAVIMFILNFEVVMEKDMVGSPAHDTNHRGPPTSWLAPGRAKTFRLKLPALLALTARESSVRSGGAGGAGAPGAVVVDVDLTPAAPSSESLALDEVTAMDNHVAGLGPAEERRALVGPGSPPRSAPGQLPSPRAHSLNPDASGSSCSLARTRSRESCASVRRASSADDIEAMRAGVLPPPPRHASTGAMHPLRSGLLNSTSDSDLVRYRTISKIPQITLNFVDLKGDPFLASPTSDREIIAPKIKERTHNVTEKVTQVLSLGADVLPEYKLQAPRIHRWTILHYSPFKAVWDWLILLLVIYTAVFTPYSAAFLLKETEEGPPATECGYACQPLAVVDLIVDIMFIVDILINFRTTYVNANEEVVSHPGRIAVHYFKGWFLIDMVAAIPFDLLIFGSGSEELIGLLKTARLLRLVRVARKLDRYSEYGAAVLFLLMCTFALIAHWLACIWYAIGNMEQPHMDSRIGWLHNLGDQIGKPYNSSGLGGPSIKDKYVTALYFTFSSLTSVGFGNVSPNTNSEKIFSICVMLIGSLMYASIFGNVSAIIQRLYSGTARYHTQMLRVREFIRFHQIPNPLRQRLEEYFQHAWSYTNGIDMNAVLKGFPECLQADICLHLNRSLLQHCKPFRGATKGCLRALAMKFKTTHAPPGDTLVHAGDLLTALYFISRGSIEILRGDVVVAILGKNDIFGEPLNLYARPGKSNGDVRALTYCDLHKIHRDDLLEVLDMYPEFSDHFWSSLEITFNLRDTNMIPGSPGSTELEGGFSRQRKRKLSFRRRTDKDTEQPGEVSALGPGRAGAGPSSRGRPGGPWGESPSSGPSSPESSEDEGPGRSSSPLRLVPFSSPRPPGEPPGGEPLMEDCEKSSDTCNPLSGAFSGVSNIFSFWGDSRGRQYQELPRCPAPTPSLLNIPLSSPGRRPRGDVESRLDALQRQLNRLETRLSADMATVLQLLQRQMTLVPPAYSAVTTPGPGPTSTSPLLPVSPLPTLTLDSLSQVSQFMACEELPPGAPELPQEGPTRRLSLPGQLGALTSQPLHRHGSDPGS

Each structure is given as a SMILES string. pIC50: −log10 of the molar value.

What is called pIC50 is −log10 of the IC50, conventionally taken in molar units. A lower pIC50 goes with a high IC50. The compound `O=C(Nc1ccc(Cl)c(Cl)c1)N1CCN(C[C@@H]2CCCN(Cc3ccccc3)C2)CC1` gave a pIC50 of 6.25.
Then `O=C(Nc1ccc(Cl)c(Cl)c1)N1CCN(C[C@@H]2CCCN(CCc3ccccc3)C2)CC1`, with over 6.52.
